Assay results reported in paper doi:10.1101/2025.11.17.688764.
No constants are given. Whether binding was seen depends on the method and setting. Some results given as binding are weak or reduced against the parent protein; the word gives no strength. For part of these data: Sequences can lack the tags named with a protein.

Protein sequences, listed by entry. Tags and fused reporters are not part of them.
UniProt Q6KC79: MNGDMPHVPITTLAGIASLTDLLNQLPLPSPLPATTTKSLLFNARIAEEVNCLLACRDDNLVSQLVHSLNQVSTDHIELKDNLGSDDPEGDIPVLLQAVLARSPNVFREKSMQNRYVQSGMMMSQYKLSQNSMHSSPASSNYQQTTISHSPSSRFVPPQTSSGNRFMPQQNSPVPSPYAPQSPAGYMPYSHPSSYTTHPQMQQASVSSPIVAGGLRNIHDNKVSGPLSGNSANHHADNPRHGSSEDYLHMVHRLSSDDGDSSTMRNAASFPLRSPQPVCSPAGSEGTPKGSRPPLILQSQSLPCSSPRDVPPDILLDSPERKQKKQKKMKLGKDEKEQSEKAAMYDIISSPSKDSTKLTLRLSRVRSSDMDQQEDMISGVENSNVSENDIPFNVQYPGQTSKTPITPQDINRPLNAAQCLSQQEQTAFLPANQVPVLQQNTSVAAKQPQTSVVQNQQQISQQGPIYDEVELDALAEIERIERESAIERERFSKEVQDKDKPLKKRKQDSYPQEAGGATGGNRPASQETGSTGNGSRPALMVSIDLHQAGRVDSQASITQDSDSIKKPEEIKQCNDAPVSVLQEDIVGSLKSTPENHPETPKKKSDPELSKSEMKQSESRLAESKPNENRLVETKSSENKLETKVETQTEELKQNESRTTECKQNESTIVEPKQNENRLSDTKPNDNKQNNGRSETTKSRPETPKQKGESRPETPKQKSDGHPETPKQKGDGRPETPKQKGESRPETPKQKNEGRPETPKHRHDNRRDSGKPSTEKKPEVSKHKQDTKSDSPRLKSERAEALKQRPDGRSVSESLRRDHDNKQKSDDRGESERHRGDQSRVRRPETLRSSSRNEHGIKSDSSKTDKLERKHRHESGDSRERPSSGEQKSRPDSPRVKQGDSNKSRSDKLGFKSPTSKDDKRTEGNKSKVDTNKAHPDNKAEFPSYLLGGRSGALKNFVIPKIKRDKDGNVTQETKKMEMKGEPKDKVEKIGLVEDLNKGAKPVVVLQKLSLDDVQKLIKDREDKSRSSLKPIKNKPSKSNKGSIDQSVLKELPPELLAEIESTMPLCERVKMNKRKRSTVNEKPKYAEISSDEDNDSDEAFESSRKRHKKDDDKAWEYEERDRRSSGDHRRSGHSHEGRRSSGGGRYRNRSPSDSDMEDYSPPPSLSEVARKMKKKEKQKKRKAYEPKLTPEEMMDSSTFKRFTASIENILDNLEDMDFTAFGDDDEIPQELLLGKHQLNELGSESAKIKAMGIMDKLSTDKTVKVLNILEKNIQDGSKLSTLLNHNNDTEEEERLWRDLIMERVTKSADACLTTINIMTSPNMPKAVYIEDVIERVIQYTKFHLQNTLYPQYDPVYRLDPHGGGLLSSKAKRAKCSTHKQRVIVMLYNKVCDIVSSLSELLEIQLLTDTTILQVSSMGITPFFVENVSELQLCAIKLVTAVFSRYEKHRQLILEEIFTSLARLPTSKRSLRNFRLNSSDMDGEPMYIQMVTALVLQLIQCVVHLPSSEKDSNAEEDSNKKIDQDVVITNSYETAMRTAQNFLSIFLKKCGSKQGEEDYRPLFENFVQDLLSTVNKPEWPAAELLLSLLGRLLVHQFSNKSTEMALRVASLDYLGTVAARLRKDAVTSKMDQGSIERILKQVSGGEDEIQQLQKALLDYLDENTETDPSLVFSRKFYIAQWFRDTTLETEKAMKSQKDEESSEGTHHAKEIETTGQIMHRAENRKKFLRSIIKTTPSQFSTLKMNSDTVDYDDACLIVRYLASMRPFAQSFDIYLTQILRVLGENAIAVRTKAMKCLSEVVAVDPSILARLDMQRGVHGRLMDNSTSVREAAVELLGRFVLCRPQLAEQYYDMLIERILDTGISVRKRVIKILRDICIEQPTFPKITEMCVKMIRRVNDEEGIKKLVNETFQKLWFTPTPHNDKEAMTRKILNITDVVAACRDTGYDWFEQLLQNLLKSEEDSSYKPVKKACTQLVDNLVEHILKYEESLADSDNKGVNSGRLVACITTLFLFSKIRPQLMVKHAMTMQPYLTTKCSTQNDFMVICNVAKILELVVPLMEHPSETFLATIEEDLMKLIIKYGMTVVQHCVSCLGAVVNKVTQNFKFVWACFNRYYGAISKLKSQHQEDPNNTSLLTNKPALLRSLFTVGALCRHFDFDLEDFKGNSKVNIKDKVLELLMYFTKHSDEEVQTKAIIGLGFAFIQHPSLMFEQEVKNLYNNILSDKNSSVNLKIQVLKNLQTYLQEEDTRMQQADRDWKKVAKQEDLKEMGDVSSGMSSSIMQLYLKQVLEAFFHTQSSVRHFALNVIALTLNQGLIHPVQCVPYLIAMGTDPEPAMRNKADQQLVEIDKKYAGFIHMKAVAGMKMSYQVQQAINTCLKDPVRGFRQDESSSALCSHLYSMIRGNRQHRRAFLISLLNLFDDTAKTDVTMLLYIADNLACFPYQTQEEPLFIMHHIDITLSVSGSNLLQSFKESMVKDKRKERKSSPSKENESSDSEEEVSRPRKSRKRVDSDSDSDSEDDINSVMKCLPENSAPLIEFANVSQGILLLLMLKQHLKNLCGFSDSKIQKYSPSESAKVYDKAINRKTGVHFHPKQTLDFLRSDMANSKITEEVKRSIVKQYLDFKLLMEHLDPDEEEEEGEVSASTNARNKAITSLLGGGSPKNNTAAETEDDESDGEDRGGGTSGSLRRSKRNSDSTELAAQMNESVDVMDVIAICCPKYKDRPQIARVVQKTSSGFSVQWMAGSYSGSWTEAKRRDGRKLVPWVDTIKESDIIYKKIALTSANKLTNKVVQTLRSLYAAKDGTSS
UniProt Q9UQE7: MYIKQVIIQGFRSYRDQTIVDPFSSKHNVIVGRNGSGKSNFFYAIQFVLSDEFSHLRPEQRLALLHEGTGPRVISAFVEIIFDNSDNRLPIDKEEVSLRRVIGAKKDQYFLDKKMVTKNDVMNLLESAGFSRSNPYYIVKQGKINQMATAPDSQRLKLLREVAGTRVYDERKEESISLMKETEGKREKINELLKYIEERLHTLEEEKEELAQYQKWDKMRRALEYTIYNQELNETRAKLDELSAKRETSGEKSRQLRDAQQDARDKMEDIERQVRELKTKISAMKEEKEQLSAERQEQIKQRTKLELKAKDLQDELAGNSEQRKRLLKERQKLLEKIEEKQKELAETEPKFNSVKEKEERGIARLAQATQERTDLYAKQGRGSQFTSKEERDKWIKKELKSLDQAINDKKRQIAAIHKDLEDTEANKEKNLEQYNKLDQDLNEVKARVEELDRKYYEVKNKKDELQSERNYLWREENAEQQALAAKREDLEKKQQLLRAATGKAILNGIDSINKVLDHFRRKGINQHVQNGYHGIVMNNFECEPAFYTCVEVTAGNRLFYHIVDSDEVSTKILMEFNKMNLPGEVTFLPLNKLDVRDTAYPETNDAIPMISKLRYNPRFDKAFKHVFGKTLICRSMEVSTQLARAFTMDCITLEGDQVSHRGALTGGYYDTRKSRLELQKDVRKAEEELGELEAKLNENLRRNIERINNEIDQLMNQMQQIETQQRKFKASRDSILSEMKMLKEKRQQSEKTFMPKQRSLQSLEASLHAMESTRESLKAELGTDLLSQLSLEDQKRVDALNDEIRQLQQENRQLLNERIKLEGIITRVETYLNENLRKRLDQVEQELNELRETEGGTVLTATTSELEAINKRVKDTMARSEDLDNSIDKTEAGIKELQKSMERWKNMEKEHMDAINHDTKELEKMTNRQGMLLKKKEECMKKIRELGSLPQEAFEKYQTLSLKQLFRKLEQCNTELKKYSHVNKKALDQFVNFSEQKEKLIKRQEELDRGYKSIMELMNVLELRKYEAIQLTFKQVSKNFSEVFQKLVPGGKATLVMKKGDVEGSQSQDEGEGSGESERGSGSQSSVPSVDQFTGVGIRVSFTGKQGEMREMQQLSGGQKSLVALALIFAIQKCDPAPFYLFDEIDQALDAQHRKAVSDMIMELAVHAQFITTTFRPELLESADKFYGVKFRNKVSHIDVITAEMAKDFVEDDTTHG

T1: 10×His-tagged STAG1 (human) (UniProt Q8WVM7)
T1 sequence: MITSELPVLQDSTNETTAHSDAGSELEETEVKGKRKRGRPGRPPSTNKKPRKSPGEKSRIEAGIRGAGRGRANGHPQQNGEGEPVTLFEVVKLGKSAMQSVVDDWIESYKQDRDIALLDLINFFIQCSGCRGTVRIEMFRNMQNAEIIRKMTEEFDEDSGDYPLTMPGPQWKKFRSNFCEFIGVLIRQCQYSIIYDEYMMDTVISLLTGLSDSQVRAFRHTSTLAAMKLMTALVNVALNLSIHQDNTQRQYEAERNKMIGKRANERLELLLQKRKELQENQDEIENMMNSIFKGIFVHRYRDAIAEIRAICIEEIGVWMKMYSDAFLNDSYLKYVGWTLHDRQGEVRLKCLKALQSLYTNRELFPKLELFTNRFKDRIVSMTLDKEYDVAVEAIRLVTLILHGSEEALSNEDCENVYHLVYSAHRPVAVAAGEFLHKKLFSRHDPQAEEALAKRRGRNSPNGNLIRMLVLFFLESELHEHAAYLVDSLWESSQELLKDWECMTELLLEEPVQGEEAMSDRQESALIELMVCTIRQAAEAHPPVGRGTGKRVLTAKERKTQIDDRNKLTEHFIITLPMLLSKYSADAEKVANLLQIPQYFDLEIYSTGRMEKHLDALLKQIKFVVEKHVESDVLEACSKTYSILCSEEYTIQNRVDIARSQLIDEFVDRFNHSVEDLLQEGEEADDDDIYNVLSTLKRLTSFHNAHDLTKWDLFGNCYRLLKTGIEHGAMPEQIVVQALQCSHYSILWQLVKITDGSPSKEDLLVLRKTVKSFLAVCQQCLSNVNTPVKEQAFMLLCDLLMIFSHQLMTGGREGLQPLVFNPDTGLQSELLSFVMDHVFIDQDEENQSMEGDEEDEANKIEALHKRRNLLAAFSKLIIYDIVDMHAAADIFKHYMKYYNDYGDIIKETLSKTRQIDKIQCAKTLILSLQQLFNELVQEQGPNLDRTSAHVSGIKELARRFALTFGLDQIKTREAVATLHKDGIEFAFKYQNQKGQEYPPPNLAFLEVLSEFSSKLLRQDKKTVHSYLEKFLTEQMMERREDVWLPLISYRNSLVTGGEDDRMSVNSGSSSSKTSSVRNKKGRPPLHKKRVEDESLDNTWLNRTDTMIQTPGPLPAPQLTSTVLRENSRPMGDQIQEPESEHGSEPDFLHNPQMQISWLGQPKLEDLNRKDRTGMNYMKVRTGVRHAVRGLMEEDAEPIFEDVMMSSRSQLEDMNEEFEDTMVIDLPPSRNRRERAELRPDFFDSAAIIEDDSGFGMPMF

T2: 10×His-tagged STAG2 (human) (UniProt Q8N3U4)
T2 sequence: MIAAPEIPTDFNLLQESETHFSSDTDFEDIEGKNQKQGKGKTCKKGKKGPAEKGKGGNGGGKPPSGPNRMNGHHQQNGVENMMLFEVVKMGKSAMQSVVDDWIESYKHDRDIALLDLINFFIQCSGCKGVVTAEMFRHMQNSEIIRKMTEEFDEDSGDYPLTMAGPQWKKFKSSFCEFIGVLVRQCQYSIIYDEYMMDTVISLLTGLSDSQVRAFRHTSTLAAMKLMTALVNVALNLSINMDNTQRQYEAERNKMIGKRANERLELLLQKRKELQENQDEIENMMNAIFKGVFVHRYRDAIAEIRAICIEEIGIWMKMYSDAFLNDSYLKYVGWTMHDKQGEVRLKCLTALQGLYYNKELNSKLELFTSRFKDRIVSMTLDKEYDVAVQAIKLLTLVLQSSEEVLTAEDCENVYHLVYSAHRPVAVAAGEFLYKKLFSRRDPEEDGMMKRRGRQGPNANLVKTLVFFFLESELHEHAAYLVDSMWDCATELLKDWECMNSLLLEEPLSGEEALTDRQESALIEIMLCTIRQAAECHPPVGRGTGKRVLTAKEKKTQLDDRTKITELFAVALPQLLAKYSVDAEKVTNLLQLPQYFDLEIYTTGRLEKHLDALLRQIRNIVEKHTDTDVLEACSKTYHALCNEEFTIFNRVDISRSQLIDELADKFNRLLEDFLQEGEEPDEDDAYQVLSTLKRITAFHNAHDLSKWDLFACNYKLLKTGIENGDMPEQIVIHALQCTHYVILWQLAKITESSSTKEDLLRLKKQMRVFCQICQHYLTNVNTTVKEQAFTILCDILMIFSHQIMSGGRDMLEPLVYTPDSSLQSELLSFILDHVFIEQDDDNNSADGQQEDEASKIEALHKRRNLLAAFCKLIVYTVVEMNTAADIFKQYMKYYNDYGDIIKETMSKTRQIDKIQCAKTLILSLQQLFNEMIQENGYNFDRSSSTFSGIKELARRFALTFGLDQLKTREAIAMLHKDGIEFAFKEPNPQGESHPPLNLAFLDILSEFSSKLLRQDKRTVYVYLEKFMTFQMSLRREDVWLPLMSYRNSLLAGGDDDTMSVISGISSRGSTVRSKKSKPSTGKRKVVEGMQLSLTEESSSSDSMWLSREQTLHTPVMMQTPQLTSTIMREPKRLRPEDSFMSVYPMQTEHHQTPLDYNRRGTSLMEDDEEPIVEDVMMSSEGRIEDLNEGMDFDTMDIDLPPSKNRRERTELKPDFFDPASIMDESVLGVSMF


Key:
Test in all cases: co-purification
[1] = target: T1, 10×His-tagged STAG1 (human)
[2] = target: T2, 10×His-tagged STAG2 (human)
[3] = target: FLAG-Halo-NIPBL-10×His (human) (UniProt Q6KC79)

Row | binding [1] | binding [2] | binding [3] | Molecule
1 | binds | binds | – | Smc3^FLAG (from UniProt Q9UQE7 1-1217)
2 | – | – | binds | Mau2 (protein, UniProt Q9Y6X3 1-613) MAAQAAAAAQAAAAQAAQAEAADSWYLALLGFAEHFRTSSPPKIRLCVHCLQAVFPFKPPQRIEARTHLQLGSVLYHHTKNSEQARSHLEKAWLISQQIPQFEDVKFEAASLLSELYCQENSVDAAKPLLRKAIQISQQTPYWHCRLLFQLAQLHTLEKDLVSACDLLGVGAEYARVVGSEYTRALFLLSKGMLLLMERKLQEVHPLLTLCGQIVENWQGNPIQKESLRVFFLVLQVTHYLDAGQVKSVKPCLKQLQQCIQTISTLHDDEILPSNPADLFHWLPKEHMCVLVYLVTVMHSMQAGYLEKAQKYTDKALMQLEKLKMLDCSPILSSFQVILLEHIIMCRLVTGHKATALQEISQVCQLCQQSPRLFSNHAAQLHTLLGLYCVSVNCMDNAEAQFTTALRLTNHQELWAFIVTNLASVYIREGNRHQEVLYSLLERINPDHSFPVSSHCLRAAAFYVRGLFSFFQGRYNEAKRFLRETLKMSNAEDLNRLTACSLVLLGHIFYVLGNHRESNNMVVPAMQLASKIPDMSVQLWSSALLRDLNKACGNAMDAHEAAQMHQNFSQQLLQDHIEACSLPEHNLITWTDGPPPVQFQAQNGPNTSLASLL
